This is one part of the list. Shown are side measurements of this screen, not its main read-out; they come without a call. The list favours compounds with an active or inconclusive main result. Potencies come from curve fits of mixed quality, noted in brackets.
Test: qHTS Assay for Lipid Storage Modulators in Drosophila S3 Cells;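 on cell number change: cells counted by Cell Tracker Red CMTPX staining in the red channel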
Settings: BODIPY lipid droplet fluorescence, 18-24 h; for cell number change: measured here: cell count max response, cells fed with added oleic acid
How it was run: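 Drosophila S3 cells loaded with oleic acid (400 uM, as added) and compounds at several concentrations; lipid droplets imaged by 488-nm laser-scanning cytometry, 500–530 nm intensity and object ratio to cell channel. Percent activity normalized to 20 uM Triacsin C.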

[1] = measured here: cell number channel AC50, cells fed with added oleic acid
[2] = measured here: lipid fluorescence (Fed channel) AC50, cells fed with added oleic acid

Row | SMILES | cell number change | AC50 [1] | AC50 [2]
1 | O=C(O)CCc1ccc(-c2ccc(F)cc2)n1CCC(=O)O | -35.8% | 3.66 µM [falling, full curve] | 16.4 µM [falling, single point]
2 | COc1ccc(C2NCCO2)cc1OC (stereo unspecified) | 15% | 2.31 µM [falling, single point] | –
3 | O=C(Cc1c(O)c2ccccc2oc1=O)c1ccc(F)cc1 | 38.4% | – | –
4 | Cc1ccc(C(=O)N2CCN(c3cccc(C)c3C)CC2)o1 | -3.87% | – | 6.51 µM [rising, single point]
5 | O=C1C=C(c2cc(C(F)(F)F)cc(C(F)(F)F)c2)C[C@@H](c2ccc(Cl)cc2)C1 | -54.8% | 6.51 µM [falling, partial curve] | 5.8 µM [falling, partial curve]
6 | O=S(=O)(Cc1ccc(Cl)cc1)Nc1ccc2c(c1)OCO2 | -23.1% | 1.46 µM [falling, full curve, poor fit] | 0.13 µM [falling, full curve]
7 | COc1ccc(Cl)cc1NC(=O)Cn1cccc1 | 13.3% | – | –
8 | O=C(NNC1OC(CO)C(O)C(O)C1O)c1cccc(Br)c1 (stereo unspecified) | 46.4% | 29.1 µM [rising, single point] | 20.6 µM [rising, single point]
9 | Cn1c(CC(=O)Nc2ccccc2F)nnc1SCC(=O)NC1CCCC1 | -13.2% | 0.731 µM [rising, single point] | –
10 | CCOC(=O)N/N=C\c1ccc(OC/C=C/c2ccccc2)cc1 | 18.3% | 0.517 µM [rising, partial curve, poor fit] | –
11 | O=C(/C=C/c1ccccc1)N/C(=C/c1ccccc1)C(=O)N1CCOCC1 | -0.94% | – | 6.51 µM [rising, single point]
12 | CCOc1ccc2nc(NC(=O)CSCC(=O)Nc3cc(C)on3)sc2c1 | 2.21% | – | –
13 | O=c1c(C/C=C/c2ccccc2)c(O)ccn1Cc1cccc(Cl)c1 | -29.1% | – | 2.91 µM [falling, partial curve, poor fit]
14 | CC(C)c1ccc(OCC(O)CNC(C)c2ccccc2)cc1 (stereo unspecified) | -11.7% | 0.731 µM [rising, full curve] | 29.1 µM [falling, single point]
15 | CCCn1c(=O)c2sccc2n2c(CCCC(=O)NCc3ccco3)nnc12 | – | – | 9.2 µM [falling, partial curve]
16 | COC(=O)c1ccc(OCC(O)CN2C(=O)c3ccccc3S2(=O)=O)cc1 (stereo unspecified) | -21.9% | – | 23.1 µM [falling, single point]
17 | CC(=O)c1ccccc1NC(=O)COC(=O)/C(=C/c1ccccc1)n1nnnc1C | – | – | 6.51 µM [falling, partial curve]
18 | COc1cccc(-c2nn(-c3ccc(F)cc3)cc2C(=O)NCC2CCCO2)c1 (stereo unspecified) | – | – | 29.1 µM [falling, single point]
19 | COCCN(CCOC)S(=O)(=O)c1ccc(C(=O)Nc2nnc(C3CC3)o2)cc1 | – | – | 0.082 µM [falling, full curve]
20 | CC(c1ccc(Cl)cc1)n1c(-c2ccc3ccccc3n2)n[nH]c1=S (stereo unspecified) | -37.9% | – | 29.1 µM [falling, single point]

Row | SMILES | cell number change | AC50 [1] | AC50 [2]
21 | Cc1noc(/C=C/N(C)C)c1S(=O)(=O)N1CCCC(C(=O)Nc2ccc3c(c2)OCO3)C1 (stereo unspecified) | – | 0.731 µM [rising, partial curve] | 1.03 µM [rising, partial curve]
22 | O=C(Nc1cccc(S(=O)(=O)N2CCCCC2)c1)Nc1ccc(Cl)cc1Cl | 10% | 2.91 µM [rising, single point] | 3.26 µM [rising, single point]
23 | COc1ccc(C(=O)NNC(=O)Cc2ccc(Cl)cc2)cc1 | 13.3% | – | 8.2 µM [rising, partial curve]
24 | Cc1ccc(S(=O)(=O)Nc2ccc(N=Nc3ccc(O)cc3)cc2)cc1 | -40% | 7.31 µM [falling, partial curve] | 1.03 µM [falling, full curve, poor fit]
25 | CCOc1ccccc1OCCOCCOc1c(Cl)cccc1Cl | 3.33% | – | 23.1 µM [rising, single point]
26 | O=C(Nc1ccc(S(=O)(=O)N2CCOCC2)cc1)C1CC(=O)N(c2ccc(F)cc2)C1 (stereo unspecified) | -17.1% | – | –
27 | O=C(CCCn1c(=O)c2sccc2n(CC(=O)OCc2ccccc2)c1=O)NCc1ccco1 | -22.7% | – | 20.6 µM [falling, single point]
28 | Cc1ccc(S(=O)(=O)N2CCC(=O)N(CCOCc3ccccc3)CC2)cc1 | 24.9% | – | 11.6 µM [rising, partial curve]
29 | Cc1ccc(C)c(C(=O)CN2C(=O)NC3(CCc4ccccc43)C2=O)c1 (stereo unspecified) | 6.26% | 3.66 µM [rising, single point] | 1.64 µM [rising, full curve, poor fit]
30 | O=C(Nc1ccc2c(c1)OCO2)C1CCN(Cc2cnn(-c3ccccc3)c2-n2cccc2)CC1 | 51.7% | 1.16 µM [rising, full curve] | 1.3 µM [rising, full curve]
31 | CS(=O)(=O)c1cccc(C(=O)Nc2ccccc2Cc2ccccc2)c1 | 0.84% | – | –
32 | O=C(N/N=C/c1ccc(OC(=O)c2cccs2)cc1)c1cccc(F)c1 | -79.2% | 14.6 µM [falling, partial curve] | 14.6 µM [falling, partial curve]
33 | COc1ccc(OCC(=O)N(C)Cc2ccccc2)cc1 | -8.44% | – | 3.26 µM [falling, full curve]
34 | CCN(CC)CCCNC(=O)c1cc(-c2ccc3c(c2)OCO3)on1 | – | – | 0.58 µM [rising, single point]
35 | Cc1ccc(N2C(=O)C(Cl)=C(NCCO)C2=O)c(C)c1 | 5.83% | – | 1.64 µM [rising, partial curve]
36 | O=C(CCn1[nH]c(=O)c2ccccc2c1=O)OC1CCCCC1 | -27.4% | – | –
37 | COc1c(C)cc(C(=O)C2CCCN(C(=O)c3cc(C4CC4)[nH]n3)C2)cc1C (stereo unspecified) | 5.67% | 6.51 µM [rising, single point] | 29.1 µM [falling, single point]
38 | CC1CCCN(c2ccc(C(=O)OCn3nnc4ccccc4c3=O)cc2[N+](=O)[O-])C1 (stereo unspecified) | 16.7% | – | 0.146 µM [rising, full curve, poor fit]
39 | COc1ccc([C@H]2CC(=O)C=C(c3ccc(OC(F)(F)F)cc3)C2)cc1OC | -36.4% | 7.31 µM [falling, partial curve] | –
40 | Nc1ccc2c(c1)Cc1cc([N+](=O)[O-])ccc1-2 | 8.61% | 0.092 µM [rising, full curve, poor fit] | –

Two compounds drawn at random from those above:
Row | SMILES | cell number change | AC50 [1] | AC50 [2]
31 | CS(=O)(=O)c1cccc(C(=O)Nc2ccccc2Cc2ccccc2)c1 | 0.84% | – | –
29 | Cc1ccc(C)c(C(=O)CN2C(=O)NC3(CCc4ccccc43)C2=O)c1 (stereo unspecified) | 6.26% | 3.66 µM [rising, single point] | 1.64 µM [rising, full curve, poor fit]

More structures.

Row | SMILES | cell number change | AC50 [1] | AC50 [2]
41 | CCOc1ccc(NC(=O)NCCCSC2CCCCC2)cc1 | -24.1% | – | 0.164 µM [falling, full curve, poor fit]
42 | O=C(CCS(=O)(=O)c1ccc(Cl)cc1)Nc1nc(-c2cccnc2)cs1 | 18.5% | – | 20.6 µM [rising, single point]
43 | O=S(=O)(Nc1ccon1)c1cc(Cl)ccc1Cl | -13.5% | – | 0.259 µM [falling, full curve, poor fit]
44 | O=C(CCN1CCCCC1)c1ccc2c(c1)OCO2 | -54.9% | 11.6 µM [falling, partial curve, poor fit] | 3.66 µM [falling, partial curve]
45 | CCC1(CC)Nc2ccccc2C(=O)N1c1ccc(NC(C)=O)cc1 | 3.48% | – | –
46 | CCC(C)(C)C1CCC2(CC1)NC(=O)N(CC(=O)Nc1nc(-c3ccc(C)cc3)cs1)C2=O (stereo unspecified) | -37.7% | – | 7.31 µM [falling, partial curve, poor fit]
47 | O=C(NCc1ccccc1Cl)c1ccc2c(c1)OCO2 | 0.348% | 0.231 µM [rising, full curve, poor fit] | –
48 | Cc1[nH]c(=O)[nH]c(=O)c1S(=O)(=O)Nc1ccc(F)cc1Cl | 76.1% | 29.1 µM [rising, single point] | –
49 | CN1CCN(C(=O)CCN2C(=O)/C(=C\c3ccccc3F)SC2=S)CC1 | 32.3% | 16.4 µM [rising, partial curve, poor fit] | –
50 | COc1ccc(S(=O)(=O)N2CCN(C(=O)c3oc4ccccc4c3C)CC2)cc1 | -8.09% | – | 1.3 µM [rising, full curve]
51 | O=C(c1ccccc1F)N1CCN(c2cnn(-c3cccc(Cl)c3)c(=O)c2Cl)CC1 | -22% | – | 29.1 µM [rising, single point]
52 | Cc1ccc(-c2nnc(SCC(=O)N(C)C)nc2-c2ccc(C)cc2)cc1 | -2.86% | 3.66 µM [rising, single point] | 0.00461 µM [falling, full curve, poor fit]
53 | Cc1ccc(Cl)cc1N1CCN(C(=O)Cc2ccc(-n3c(=O)[nH]c4ccsc4c3=O)cc2)CC1 | 4.84% | – | 16.4 µM [rising, single point]
54 | Cc1ccc(OC(=O)c2cccc(S(=O)(=O)N(C)C)c2)c(-n2nc3ccccc3n2)c1 | -6.15% | – | –
55 | Cc1ccc(OCC(=O)N2c3ccccc3CC2C)c([N+](=O)[O-])n1 (stereo unspecified) | 1.25% | – | 6.51 µM [rising, single point]
56 | CC(=O)NC1C(=O)N=C(SCC(=O)Nc2c(C)cccc2C)NC1=O (stereo unspecified) | -36.4% | 29.1 µM [falling, single point] | –
57 | CCOc1ccc(C(C(=O)NC2CCCC2)N(C(=O)c2snc(C(N)=O)c2N)c2cccc(O)c2)cc1 (stereo unspecified) | 15.7% | – | 29.1 µM [falling, single point]
58 | COc1cc(CN2CCNC(=O)C2CC(=O)NCCCN2CCOCC2)cc(OC)c1 (stereo unspecified) | -24.1% | – | 29.1 µM [rising, single point]

— PubChem BioAssay AID2685 (National Center for Advancing Translational Sciences (NCATS), 2010)
